Data as given in PubChem BioAssay AID1224830 (NIAID, 2016)

Test: 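Host factors that control LPS-induced TNF expression in human macrophages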 (primary screen)
Cells: human THP-1 monocytic leukaemia cells, TNF dual-luciferase reporter clone, PMA-differentiated to macrophage-like cells
Reagent: siRNA pool against human genes, 50 nM
Duration: LPS for 4 h, given about 3 days after siRNA transfection
Challenge: bacterial LPS (TLR4 ligand), 10 ng/ml
Measured: 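Ratio of firefly to renilla light, scaled to the plate median and expressed as a robust z-score per replicate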
Reading the numbers: TNF reporter robust z-score: higher = stronger TNF reporter response to LPS
Call rule: 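Each well counts as active if its z-score is over 2.8 or under -1.5; controls are left without a call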
The deposit covers about 18,000 reagents; this is an unselected part. In the full data, about 2,900 (16%) were called active. 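Calls are made per well; low scores hint the gene aids the LPS response, high scores that it dampens it.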 Unmarked entries are inactive. Repeated entries: four replicate wells of each siRNA pool. Reagent sequences are not shown.

| gene | TNF reporter robust z-score |
| --- | --- |
| PRELID2 (PRELI domain containing 2) | -0.18 |
| PRELID2 (PRELI domain containing 2) | 0 |
| PRELID2 (PRELI domain containing 2) | -0.54 |
| PRELID2 (PRELI domain containing 2) | 0.16 |
| SERTAD1 (SERTA domain containing 1) | 1.04 |
| SERTAD1 (SERTA domain containing 1) | 1.25 |
| SERTAD1 (SERTA domain containing 1) | -0.25 |
| SERTAD1 (SERTA domain containing 1) | 1.27 |
| ZNF442 (zinc finger protein 442) | -0.91 |
| ZNF442 (zinc finger protein 442) | -1.08 |
| ZNF442 (zinc finger protein 442) | -1.03 |
| ZNF442 (zinc finger protein 442) | 0.2 |
| APOBEC2 (apolipoprotein B mRNA editing enzyme catalytic subunit 2) | -0.9 |
| APOBEC2 (apolipoprotein B mRNA editing enzyme catalytic subunit 2) | -0.42 |
| APOBEC2 (apolipoprotein B mRNA editing enzyme catalytic subunit 2) | -0.52 |
| APOBEC2 (apolipoprotein B mRNA editing enzyme catalytic subunit 2) | -0.09 |

Part of the list above in another layout.
SERTAD1 (SERTA domain containing 1)
- TNF reporter robust z-score: 1.27

ZNF442 (zinc finger protein 442)
- TNF reporter robust z-score: -0.91

ZNF442 (zinc finger protein 442)
- TNF reporter robust z-score: -1.08

ZNF442 (zinc finger protein 442)
- TNF reporter robust z-score: -1.03

More reagents follow:
| gene | TNF reporter robust z-score |
| --- | --- |
| NBPF3 (NBPF member 3) | -0.87 |
| NBPF3 (NBPF member 3) | -1.57 (active) |
| NBPF3 (NBPF member 3) | -0.94 |
| NBPF3 (NBPF member 3) | -0.47 |
| REL (REL proto-oncogene, NF-kB subunit) | 1.23 |
| REL (REL proto-oncogene, NF-kB subunit) | 3.2 (active) |
| REL (REL proto-oncogene, NF-kB subunit) | -0.3 |
| REL (REL proto-oncogene, NF-kB subunit) | 0.52 |
| DDX55 (DEAD-box helicase 55) | -0.05 |
| DDX55 (DEAD-box helicase 55) | 0.71 |
| DDX55 (DEAD-box helicase 55) | 0.58 |
| DDX55 (DEAD-box helicase 55) | 1.24 |
| WSB2 (WD repeat and SOCS box containing 2) | -1.14 |
| WSB2 (WD repeat and SOCS box containing 2) | 0.12 |
| WSB2 (WD repeat and SOCS box containing 2) | -1.89 (active) |
| WSB2 (WD repeat and SOCS box containing 2) | -0.1 |
| KLF5 (KLF transcription factor 5) | -0.55 |
| KLF5 (KLF transcription factor 5) | 3 (active) |
| KLF5 (KLF transcription factor 5) | 3.14 (active) |
| KLF5 (KLF transcription factor 5) | 0.5 |
| ATP8B2 (ATPase phospholipid transporting 8B2) | -0.34 |
| ATP8B2 (ATPase phospholipid transporting 8B2) | 0.26 |
| ATP8B2 (ATPase phospholipid transporting 8B2) | 0.12 |
| ATP8B2 (ATPase phospholipid transporting 8B2) | -0.57 |
| LALBA (lactalbumin alpha) | 1.17 |
| LALBA (lactalbumin alpha) | 1.12 |
| LALBA (lactalbumin alpha) | 0.87 |
| LALBA (lactalbumin alpha) | 1.04 |
| NECTIN3 (nectin cell adhesion molecule 3) | 0.59 |
| NECTIN3 (nectin cell adhesion molecule 3) | -0.45 |
| NECTIN3 (nectin cell adhesion molecule 3) | 0.08 |
| NECTIN3 (nectin cell adhesion molecule 3) | 0.53 |
